# PubChem BioAssay AID1347075 (National Center for Advancing Translational Sciences (NCATS), 2019)
# The whole screen tested about 400,000 compounds, of which about 5,500 (1.4%) were called active. Inconclusive means that the source gave no clear call. Such entries were picked first, then a sample of the others. Calls follow the shape of the dose curve; as a rule, active = well fitted cell-killing curve with a large enough effect; inconclusive = small, poorly fitted or top-dose-only effect, or effect the other way; inactive = flat fitted curve, though single readings scatter. A potency beside an inconclusive call is a rough fit, not a confirmed value.
# Assay: qHTS assay for MDR1-selective chemotherapeutics: Primary screen using the parental adenocarcinoma cell KB-3-1; also: nearly all actives have a fitted effect of over 60% in size
# Conditions: KB-3-1 viability, CellTiter-Glo ATP luminescence, 72 h; activity change, negative = cytotoxic: at 46.1 µM (top of the series)
# Summary of the method: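 KB-3-1 cells, DMEM (no phenol red) + 10% FBS; compound by pin transfer, 72 h, 37 °C. Readout: CellTiter-Glo luminescence after 10 min. Data normalized, curve-fitted.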
# % is scaled to controls: 0 for no effect and ±100 for the full control effect; potency is read from the fitted curve at half-maximal effect.
Compound,Potency,"activity change, negative = cytotoxic"
Cc1noc(C)c1COC(=O)c1cccc(S(=O)(=O)N2c3ccccc3CC2C)c1 (stereo not given),"inconclusive: 29.1 µM [cytotoxic, single point]",
CCOc1cc(N2CCOCC2)c(OCC)cc1NC(=O)c1ccc(OCc2c(C)noc2C)c(OC)c1,inactive,
CC1Cc2cc(S(=O)(=O)NCCc3ccccc3)ccc2N1C(=O)C1CCC1 (stereo not given),"inconclusive: 20.6 µM [cytotoxic, single point]",
COc1ccc(CCC(=O)NCCc2csc(-c3ccc(C(F)(F)F)cc3)n2)cc1,inactive,
Clc1cccc(Cl)c1/C=N/Nc1c(Cl)cncc1Cl,active: 4.61 µM,
Cc1ccc2c(c1)N(C(=O)Nc1cccc(C)c1C)CCO2,inactive,
OCC[C@H]1C[C@@H](O)[C@H](O)[C@]2(OCc3ccccc32)O1,"inconclusive: 6.51 µM [rising, partial curve, poor fit]",
CC(C)Sc1ncnc2c1oc1ccccc12,,inconclusive: 0.774%
COc1cccc(C(=O)Nn2cnnc2)c1OC,inactive,
CC(C)[C@H](NC(=O)OCc1ccccc1)C(=O)OCC(=O)Nc1ccc(N2CCOCC2)cc1,inactive,
COc1cccc(C2C3=C(N=C4SCC(=O)N42)c2ccccc2CC3)c1OC (stereo not given),"inconclusive: 18.4 µM [cytotoxic, single point]",
CCOc1ccc(Nc2nc3cc(S(=O)(=O)N(CC)CC)ccc3o2)cc1,"inconclusive: 11.6 µM [cytotoxic, partial curve]",
CCO[C@H]1OC(C(=O)N2CCN(Cc3ccc4c(c3)OCO4)CC2)=C[C@@H](c2csc3ccccc23)[C@@H]1CCCO,"inconclusive: 20.6 µM [cytotoxic, single point]",
CCCCCc1c(-c2cccc(OC)c2)ncn1CCc1ccccc1OC,"inconclusive: 29.1 µM [cytotoxic, single point]",
O=[N+]([O-])c1ccccc1S(=O)(=O)N1CCN(c2ccccn2)CC1,inactive,
CN(Cc1c(F)cccc1Cl)C(=O)c1cccc(S(=O)(=O)NCc2ccccc2)c1,inactive,
O=C(c1ccc(F)cc1)N1CCN(c2ccc([N+](=O)[O-])cc2-n2cccc2)CC1,"inconclusive: 8.2 µM [cytotoxic, partial curve]",
CCOc1ccc2nc(N3CCCC(C(=O)NC4CCCC4)C3)sc2c1 (stereo not given),"inconclusive: 6.51 µM [cytotoxic, partial curve]",
Oc1ccc(Br)cc1-c1cc(-c2ccco2)[nH]n1,"inconclusive: 10.3 µM [cytotoxic, partial curve, poor fit]",
O=C(CCS(=O)(=O)c1ccccc1)Nc1ncc([N+](=O)[O-])s1,"inconclusive: 20.6 µM [cytotoxic, single point]",
COc1ccccc1NC(=O)C1CCCN1S(=O)(=O)c1ccc(Cl)cc1 (stereo not given),"inconclusive: 29.1 µM [cytotoxic, single point]",
O=C(COCc1cc(-c2ccc3c(c2)OCO3)on1)NCc1ccccc1Cl,inactive,
O=C(CSc1cn(CC(=O)N2CCOCC2)c2ccccc12)Nc1ccccc1,inactive,

Compound,Potency,"activity change, negative = cytotoxic"
O=C(NC1CCN(Cc2ccccc2)CC1)c1ccc(Cn2c(=S)[nH]c3ccc(N4CCOCC4)cc3c2=O)cc1,inactive,
CC(C)(C)NC(=O)C(C1CC1)n1c(=O)c(-c2cc3ccccc3[nH]2)nc2ccccc21 (stereo not given),"inconclusive: 18.4 µM [cytotoxic, single point]",
Cc1cc(C)cc(C(=O)NCC(=O)N2CCN(c3cccc(Cl)c3)CC2)c1,"inconclusive: 23.1 µM [cytotoxic, single point]",
CC(C)(C)OC(=O)NCCCCCc1cn([C@@H](CO)C(=O)NCCCCCCCCCCC(=O)N2CCN(C(=O)OC(C)(C)C)CC2)nn1,"inconclusive: 18.4 µM [cytotoxic, single point]",
CCCCc1nc2n[nH]c(N)c2c2c1CCCC2,active: 4.11 µM,
C=CCn1c(SCC(N)=O)nc2ccccc2c1=O,"inconclusive: 7.31 µM [rising, partial curve, poor fit]",
CCOC(=O)c1c(C)[nH]c(C)c1S(=O)(=O)NCCc1ccco1,inactive,
O=C(COC(=O)c1c2ccccc2cc2ccccc12)NCC(F)(F)F,"inconclusive: 25.9 µM [cytotoxic, single point]",
CS(=O)(=O)c1ccc(Cl)c(NC(=O)c2ccc(-n3cncn3)c([N+](=O)[O-])c2)c1,inactive,
CCN(CCCNC(=O)CSc1cc(=O)n(CC)c2ccccc12)c1cccc(C)c1,"inconclusive: 29.1 µM [cytotoxic, single point]",
CCOC(=O)/C(C#N)=C1\Nc2ccccc2N=C1N(CC(C)C)CC(C)C,inactive,
Cc1ccc(C=Nc2cccnc2N)cc1,inactive,
CCOC(=O)C(C(=O)OCC)C(Nc1ccc(Br)cc1)c1ccccc1 (stereo not given),"inconclusive: 20.6 µM [cytotoxic, single point]",
COc1cccc(-n2c(C)c3c(OC)cccc(=O)c3c2C)c1,inactive,
Cc1cccc(N2CC(C(=O)Nc3cccc(S(=O)(=O)N4CCCCC4)c3)CC2=O)c1C (stereo not given),"inconclusive: 20.6 µM [cytotoxic, partial curve, poor fit]",
O=C(NCc1cccnc1)/C(=C\c1ccc(-c2cccc(Cl)c2)o1)S(=O)(=O)c1ccccc1,"inconclusive: 3.26 µM [cytotoxic, full curve, poor fit]",
CCC(C)c1ccccc1NC(=O)c1cc(C)no1 (stereo not given),"inconclusive: 23.1 µM [rising, single point]",
O=C(c1cc(-c2cccs2)nc2ccccc12)N1CCN(S(=O)(=O)c2ccccc2)CC1,inactive,
CCOC(=O)c1c(NC(=O)C2COc3ccccc3O2)sc2c1CC(C)(C)NC2(C)C (stereo not given),"inconclusive: 20.6 µM [cytotoxic, single point]",
COc1cc(OC)cc(C(=O)NCC2CCCN(C(=O)c3oc(C)cc3C)C2)c1 (stereo not given),"inconclusive: 29.1 µM [rising, single point]",
CCCN(CCC)S(=O)(=O)c1ccc(C(=O)Nc2nnc(COC)o2)cc1,inactive,
O=C(C[C@@H]1C[C@H]2c3cc(NC(=O)c4cccnc4)ccc3O[C@H]2[C@H](CO)O1)NCc1ccc(Oc2ccccc2)cc1,active: 18.4 µM,

# Of the compounds above, these have a CF3 group:
Compound,Potency,"activity change, negative = cytotoxic"
COc1ccc(CCC(=O)NCCc2csc(-c3ccc(C(F)(F)F)cc3)n2)cc1,inactive,
O=C(COC(=O)c1c2ccccc2cc2ccccc12)NCC(F)(F)F,"inconclusive: 25.9 µM [cytotoxic, single point]",

# In another format: results already given
Compound	Potency	activity change, negative = cytotoxic
Cc1cccc(N2CC(C(=O)Nc3cccc(S(=O)(=O)N4CCCCC4)c3)CC2=O)c1C (stereo not given)	inconclusive: 20.6 µM [cytotoxic, partial curve, poor fit]	
O=C(NCc1cccnc1)/C(=C\c1ccc(-c2cccc(Cl)c2)o1)S(=O)(=O)c1ccccc1	inconclusive: 3.26 µM [cytotoxic, full curve, poor fit]	
